The results in this text go back to doi:10.1101/765990 (bioRxiv, 2019).

By UniProt entry, the sequences of proteins in these tests, tags left out. Where a name states a change or a piece, a line headed by the entry shows the natural chain unless it says otherwise.
UniProt Q01590: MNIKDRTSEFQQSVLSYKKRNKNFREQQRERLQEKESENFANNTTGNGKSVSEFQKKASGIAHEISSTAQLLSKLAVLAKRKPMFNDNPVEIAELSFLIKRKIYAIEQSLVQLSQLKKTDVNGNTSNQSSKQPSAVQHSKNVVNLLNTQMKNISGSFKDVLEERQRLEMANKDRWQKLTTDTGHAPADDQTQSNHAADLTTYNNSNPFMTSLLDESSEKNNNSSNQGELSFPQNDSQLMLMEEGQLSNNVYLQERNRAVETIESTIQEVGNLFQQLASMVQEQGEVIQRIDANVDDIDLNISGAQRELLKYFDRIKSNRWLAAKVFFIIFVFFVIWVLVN

For experiment [1], the target named is Sed5p SNARE-motif (amino acids 211-320) L276P (budding yeast) (UniProt Q01590). In words: native gel or EMSA. On the technique in general: In EMSA bound probe runs differently from free probe, usually more slowly.
Experiment [2] has as its target Sed5p SNARE-motif (amino acids 211-320) L272P (budding yeast) (UniProt Q01590). In words: native gel or EMSA.
In experiment [3] the target is Sed5p (BiFC fusion in yeast cells) (budding yeast) (UniProt Q01590). In words: split reporter.

Positions count from the first letter of the chain named. Names and notes keep the numbering of the source. No constants are given. Whether binding was seen depends on the method and setting. For some assays here: In cells and extracts the contact can be indirect. Some results given as binding are weak or reduced against the parent protein; the word gives no strength. For some assays here: Where a sequence is shown, tags or fusion partners need not be part of it.

Consider “Sed5p Habc domain (amino acids 1-210) (from UniProt Q01590 1-210) (domain or fragment)”, for which the binding entry in experiment [1] and in experiment [2] was “no binding” throughout.

B1: Sly1p (BiFC fusion in yeast cells) (protein, UniProt P22213 1-666)
chain: MAVEEIASRKDISLRDMQISAILKMLFLNKDLNNNDNITTITDDIFNQQEIIWKVLILDIKSTATISSVLRVNDLLKAGITVHSLIKQDRSPLPDVPAIYFVSPTKENIDIIVNDLKSDKYSEFYINFTSSLPRNLLEDLAQQVSITGKSDKIKQVYDQYLDFIVTEPELFSLEISNAYLTLNDPKTTEEEITGLCANIADGLFNTVLTINSIPIIRAAKGGPAEIIAEKLGTKLRDFVINTNSSSTSTLQGNDSLERGVLIILDRNIDFASMFSHSWIYQCMVFDIFKLSRNTVTIPLESKENGTDNTTAKPLATKKYDIEPNDFFWMENSHLPFPEAAENVEAALNTYKEEAAEITRKTGVTNISDLDPNSNNDTVQIQEVVKKLPELTAKKNTIDTHMNIFAALLSQLESKSLDTFFEVEQDPGSTKTRSRFLDILKDGKTNNLEDKLRSFIVLYLTSTTGLPKDFVQNVENYFKENDYDINALKYVYKLREFMQLSNMSLQNKSLEDGSDSAFKPSNLTLSGIYGLTEGKLQGGVGSLISGIKKLLPEKKTIPITNVVDAIMDPLNSSQKNLETTDSYLYIDPKITRGSHTRKPKRQSYNKSLVFVVGGGNYLEYQNLQEWAHSQLHNPKKVMYGSTAITTPAEFLNEISRLGASNSSNNDA
Take B1: the binding result in experiment [3] is listed as “binds”.

B2: sly1p (L140K) (BiFC fusion in yeast cells) (protein, UniProt P22213 1-666)
chain: B1 chain with L140K
With B2, the binding result in experiment [3] is on record as “binds”.

B3: sly1p (L140K, I153K) (BiFC fusion in yeast cells) (protein, UniProt P22213 1-666)
chain: B1 chain with L140K, I153K
With B3, the binding entry in experiment [3] is reported as “no binding”.
